Measurements reported in the supplement of paper PMC12462457.
Where a name gives a salt, the structure may show the parent alone. ± gives the standard deviation of the averaged measurements. The list shows a part of the results. Repeats in this data set agree poorly, so a single value says little.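 Cell counts came from imaging DAPI-stained nuclei, excluding as dead any cells lacking phalloidin-stained cytoplasm. Counts per well were normalized to the median vehicle-well count on that plate, and the values were averaged over two replicate plates.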

System: OVCAR8
Experiment: cell count relative to DMSO vehicle (fold change); higher = more surviving senescent cells (less killing)
Conditions: senescence inducer: cisplatin 10 µM 48 h, then 6 d recovery (CP senescent), exposure time 24 h

SMILES	cell count (compound dose 1 µM)	cell count (compound dose 5 µM)
O=c1[nH]c(=S)[nH]c2nc(-c3ccccc3)c(-c3ccccc3)nc12 [SCR7 pyrazine]	0.951 ± 0.022	0.672 ± 0.037
COc1cc2ncnc(Nc3ccc(O)c(Br)c3)c2cc1OC	1.04 ± 0.16	0.581 ± 0.2
C[C@@H]1O[C@@H](O[C@H]2C(=O)c3c(O)cc(O)cc3O[C@@H]2c2ccc(O)c(O)c2)[C@H](O)[C@H](O)[C@H]1O [Astilbin]	0.789 ± 0.087	0.756 ± 0.12
Cc1ccc(NC(=S)NNc2c([N+](=O)[O-])cc(C(F)(F)F)cc2[N+](=O)[O-])cc1Cl	0.986 ± 0.0042	0.912 ± 0.27
COc1c(O)cc(O)c2c(=O)cc(-c3ccccc3)oc12 [Wogonin]	1.07 ± 0.14	0.767 ± 0.37
COc1ccc(-c2oc3c(CC=C(C)C)c(O)cc(O)c3c(=O)c2O)cc1 [Icaritin]	1.06 ± 0.093	1.14 ± 0.17
CCOc1nc2cccc(C(=O)OC(C)OC(=O)OC3CCCCC3)c2n1Cc1ccc(-c2ccccc2-c2nn[nH]n2)cc1 (stereo unspecified) [Candesartan Cilexetil]	0.663 ± 0.16	0.0715 ± 0.067
CCCNS(=O)(=O)Nc1ncnc(OCCOc2ncc(Br)cn2)c1-c1ccc(Br)cc1 [Macitentan]	0.974 ± 0.029	0.606 ± 0.2
COC(=O)c1c2c(c3ccccc3c1O)OC(C)(C)C=C2 [Mollugin]	0.952 ± 0.2	0.196 ± 0.12
CC1(C)CCN(CCOc2ccc3[nH]ccc3c2)c2ccc(-c3cccnc3)cc21	1.033 ± 0.0085	0.745 ± 0.2
COc1ccc(/C=C/C(=O)C2(C(=O)/C=C/c3ccc(OC)c(OC)c3)CCCCC2)cc1OC	1.09 ± 0.24	1.07 ± 0.071
Nc1nc(Nc2ccc(S(N)(=O)=O)cc2)nn1C(=O)c1c(F)cccc1F	1.11 ± 0.74	1.25 ± 0.21
Cc1[nH]c(/C=C2\C(=O)Nc3ccc(S(=O)(=O)Cc4c(Cl)cccc4Cl)cc32)c(C)c1C(=O)N1CCC[C@@H]1CN1CCCC1	0.836 ± 0.066	0.335 ± 0.011
CC(C)[C@H](NC(=O)c1ccc2ccccc2n1)C(=O)N[C@@H](CC(=O)O)C(=O)COc1c(F)cccc1F	0.748 ± 0.14	0.858 ± 0.18
O=C(O)c1cc(O)c(O)c(O)c1	0.729 ± 0.29	0.887 ± 0.39
COc1cc(C(=O)O)cc(O)c1O [3-O-Methylgallic acid]	1.02 ± 0.015	0.779 ± 0.11
Cc1c(C)c2c(c(C)c1O)CC[C@@](C)(CCC[C@H](C)CCC[C@H](C)CCCC(C)C)O2 [α-Vitamin E]	0.931 ± 0.059	1.03 ± 0.084
Cc1cc(CS(=O)(=O)c2ccccc2)cc(OCc2ccc(CN3CCC[C@@H]3CO)cc2)c1	0.884 ± 0.0092	1.16 ± 0.07
Cc1cc(CS(=O)(=O)c2ccccc2)cc(OCc2ccc(CN3CCC[C@@H]3CO)cc2)c1 [PF-543 (Citrate)]	1.14 ± 0.23	0.859 ± 0.026
NC(=O)NO	1.2 ± 0.13	0.991 ± 0.066
C[C@@H]1CC[C@@]2(OC1)O[C@H]1C[C@H]3[C@@H]4CC=C5C[C@@H](O[C@@H]6O[C@H](CO)[C@@H](O)[C@H](O[C@@H]7O[C@H](CO)[C@@H](O)[C@H](O)[C@H]7O)[C@H]6O[C@@H]6O[C@@H](C)[C@H](O)[C@@H](O)[C@H]6O)CC[C@]5(C)[C@H]4CC[C@]3(C)[C@H]1[C@@H]2C [Gracillin]	1.33 ± 0.16	1.02 ± 0.16
CC(C)(C)c1cc(NC(=O)Nc2ccc(-c3cccc4c(N)nccc34)cc2)no1	0.823 ± 0.076	0.635 ± 0.17
COc1c(OC)c2occc2c2oc(=O)ccc12	1.13 ± 0.12	0.964 ± 0.091

SMILES	cell count (compound dose 1 µM)	cell count (compound dose 5 µM)
Cc1ccccc1C(=O)N1CCc2cc(-c3nc(NC(=O)Cc4ccc5c(c4)OCO5)sc3C)ccc21	1.08 ± 0.12	0.979 ± 0.15
CCCCC[C@H](CC(=O)NO)C(=O)N[C@H](C(=O)N1CCC[C@H]1CO)C(C)C [Actinonin]	1.43 ± 0.092	1.17 ± 0.17
Oc1ccc(C2=Cc3ccc(O)cc3OC2)cc1 [Phenoxodiol]	1.14 ± 0.092	0.924 ± 0.31
COc1ccc(COc2cc3oc(=O)c4cc(C(C)O)ccc4c3cc2OC)cc1 (stereo unspecified) [Palomid 529 (P529)]	0.883 ± 0.12	0.902 ± 0.22
CC(C)(C)NC(=O)[C@@H]1CN(Cc2cccnc2)CCN1C[C@@H](O)C[C@@H](Cc1ccccc1)C(=O)N[C@H]1c2ccccc2C[C@H]1O [Indinavir (sulfate)]	0.747 ± 0.096	0.969 ± 0.052
COC(=O)Nc1nc2cc(C(=O)c3ccc(F)cc3)ccc2[nH]1 [Flubendazole]	1.08 ± 0.15	0.797 ± 0.076
CC[C@@H]1C(=O)N(C)c2cnc(Nc3ccc(C(=O)NC4CCN(C)CC4)cc3OC)nc2N1C1CCCC1	0.682 ± 0.3	0.68 ± 0.15
CCCCC[C@H](O)CC(=O)CCc1ccc(O)c(OC)c1 [[6]-Gingerol]	1.3 ± 0.055	1.04 ± 0.084
CCCCCCCC/C=C\CCCCCCCC(=O)O [Oleic acid]	1.05 ± 0.057	0.94 ± 0.057
Fc1ccc(CNc2ncnc3ccc(F)cc23)cc1 [Spautin-1]	1.06 ± 0.081	0.835 ± 0.18
O=C(NC1CCNCC1)c1n[nH]cc1NC(=O)c1c(Cl)cccc1Cl	0.979 ± 0.016	0.74 ± 0.2
CC(=O)Cc1cc(=O)c2c(C)cc(O)c([C@@H]3O[C@H](CO)[C@@H](O)[C@H](O)[C@H]3O)c2o1 [Aloesin]	1.383 ± 0.0064	1.39 ± 0.2
CC[C@@H](N)CNc1ccnc(-c2cc(-c3cnn(C)c3)ccc2O)n1	1.15 ± 0.042	0.544 ± 0.24
O=C(O)/C=C/c1ccc(-c2ccc(O)c(C34CC5CC(CC(C5)C3)C4)c2)cc1 [Adarotene]	1.02 ± 0.042	0.8815 ± 0.0021
Oc1cccc(O)c1O [Pyrogallol]	1.06 ± 0.0071	1.11 ± 0.22
COC1=CC(=O)C[C@@H](C)[C@]12Oc1c(Cl)c(OC)cc(OC)c1C2=O [Griseofulvin]	1.14 ± 0.042	0.895 ± 0.17
Cn1cc(-c2cnc(N)c3c(-c4ccc5c(c4)CCN5C(=O)Cc4ccccc4)csc23)cn1	1.02 ± 0.034	0.779 ± 0.081
CC(C)(C)c1cc(/C=C(\C#N)C(N)=S)cc(C(C)(C)C)c1O [Tyrphostin AG 879]	1.208 ± 0.012	0.826 ± 0.12
Fc1ccc(-n2cc(CCCCN3CCC4(CC3)OCc3ccccc34)c3ccccc32)cc1 [Siramesine (hydrochloride)]	1.27 ± 0.076	0.773 ± 0.36
COc1cccc(OCCCN)c1-c1cc(Nc2cnc(C#N)cn2)n[nH]1 [Prexasertib]	0.384 ± 0.072	0.276 ± 0.056
N=C1S/C(=C\c2ccc(-c3ccc4c(c3)C(=O)NC4=O)o2)C(=O)N1c1ccc(Br)cc1 [Bioymifi]	1.32 ± 0.17	1.24 ± 0.019
CC(=O)Nc1ccc(C2=NNC(=O)C[C@H]2C)cc1	1.02 ± 0.079	0.798 ± 0.037
O=c1c(N=Nc2nccs2)c(-c2ccccc2)[nH]n1-c1nc(-c2ccccc2)cs1	1.19 ± 0.18	1.22 ± 0.4

Some of the entries above, set out differently:

| SMILES | cell count (compound dose 1 µM) | cell count (compound dose 5 µM) |
| --- | --- | --- |
| CCCCC[C@H](O)CC(=O)CCc1ccc(O)c(OC)c1 [[6]-Gingerol] | 1.3 ± 0.055 | 1.04 ± 0.084 |
| O=C(NC1CCNCC1)c1n[nH]cc1NC(=O)c1c(Cl)cccc1Cl | 0.979 ± 0.016 | 0.74 ± 0.2 |
| CC(=O)Cc1cc(=O)c2c(C)cc(O)c([C@@H]3O[C@H](CO)[C@@H](O)[C@H](O)[C@H]3O)c2o1 [Aloesin] | 1.383 ± 0.0064 | 1.39 ± 0.2 |
| CC(C)(C)c1cc(/C=C(\C#N)C(N)=S)cc(C(C)(C)C)c1O [Tyrphostin AG 879] | 1.208 ± 0.012 | 0.826 ± 0.12 |

Further records follow:

SMILES	cell count (compound dose 1 µM)	cell count (compound dose 5 µM)
COc1cc(C[C@H]2C(=O)OC[C@@H]2Cc2ccc(OC)c(OC)c2)ccc1O [Arctigenin]	1.05 ± 0.12	1.16 ± 0.19
CO[C@H]1CC[C@H](N2C(=O)CNc3ncc(-c4ccc(C(C)(C)O)nc4)nc32)CC1	1.04 ± 0.043	0.867 ± 0.17
COc1ccc(NS(=O)(=O)c2c(F)c(F)c(F)c(F)c2F)cc1F [Batabulin]	0.684 ± 0.19	0.296 ± 0.1
COc1ccc(NS(=O)(=O)c2c(F)c(F)c(F)c(F)c2F)cc1F [Batabulin (sodium)]	0.65 ± 0.11	0.515 ± 0.1
Cc1nc[nH]c1CN1CCN(C(=O)N[C@@H](CC(C)C)C(=O)O)[C@@H](Cc2ccccc2)C1=O	1.12 ± 0.017	0.631 ± 0.1
CC(C)C(C(=O)O)N1C(=O)C(=Cc2ccc(Br)cc2)SC1=S (stereo unspecified)	1.19 ± 0.17	1.14 ± 0.16
Nc1ncnc2c1c(-c1cccc(OCc3ccccc3)c1)cn2C1CC(CN2CCCC2)C1 (stereo unspecified)	1.21 ± 0.033	1.01 ± 0.096
CC(=O)O[C@H]1CC[C@]2(C)[C@H]3CC=C4[C@@H]5CC(C)(C)CC[C@]5(C(=O)O)CC[C@@]4(C)[C@]3(C)CC[C@H]2C1(C)C	1.26 ± 0.32	1.15 ± 0.03
Cc1cc2ncnn2cc1Nc1ncc2c(n1)n(C1CCOCC1)c(=O)n2C	0.934 ± 0.21	1.02 ± 0.016
C[C@@H]1CC[C@]2(C(=O)O[C@@H]3O[C@H](CO)[C@@H](O)[C@H](O)[C@H]3O)CC[C@]3(C)C(=CC[C@@H]4[C@@]5(C)CC[C@H](O[C@@H]6OC[C@H](O)[C@H](O)[C@H]6O)C(C)(C)[C@@H]5CC[C@]43C)[C@@H]2[C@]1(C)O [Ziyuglycoside I]	1.07 ± 0.1	0.616 ± 0.09
O=C(Nc1cc(Cl)cc2c1[nH]c1cnccc12)c1cccnc1	0.76 ± 0.46	1.08 ± 0.018
O=S(=O)(NCCN1CCNCC1)c1ccc(NC2CCCCC2)c(NCc2ccccc2)c1 [UAMC-3203 hydrochloride]	0.991 ± 0.082	0.748 ± 0.15
COc1cc(N2CCC(N3CCN(C)CC3)CC2)ccc1Nc1ncc(Cl)c(Nc2ccccc2S(=O)(=O)C(C)C)n1	0.901 ± 0.024	0.799 ± 0.015
CC(C)c1nc(CN(C)C(=O)N[C@H](C(=O)N[C@@H](Cc2ccccc2)C[C@H](O)[C@H](Cc2ccccc2)NC(=O)OCc2cncs2)C(C)C)cs1 [Ritonavir]	0.986 ± 0.061	0.566 ± 0.28
COc1ccc(CCCOC(Cn2ccnc2)c2ccc(OC)cc2)cc1 (stereo unspecified)	1.08 ± 0.019	0.746 ± 0.24
COc1c(O)cc2c(c1O)[C@@H]1O[C@H](CO)[C@@H](O)[C@H](O)[C@H]1OC2=O [Bergenin]	0.7785 ± 0.005	0.729 ± 0.027
Clc1cccc(CN=C2Nc3ccccc3NC23CCNCC3)c1 [Liproxstatin-1]	1.1 ± 0.083	0.948 ± 0.19
C[C@H]1[C@H](C)CC[C@]2(C(=O)O)CC[C@]3(C)C(=CC[C@@H]4[C@@]5(C)C[C@@H](O)[C@H](O)[C@@](C)(CO)[C@@H]5[C@H](O)C[C@]43C)[C@H]12 [Madecassic acid]	0.905 ± 0.12	0.749 ± 0.088
CNc1ccc([N+](=O)[O-])c(Nc2ccc3[nH]ncc3c2)n1	1.14 ± 0.081	1.14 ± 0.11
O=C(O)CCC(=O)c1ccc(-c2ccccc2)cc1	0.857 ± 0.037	0.658 ± 0.22
CCOC(=O)c1ccc(NC2CCCCC2)c(N)c1 [Ferrostatin-1]	1 ± 0.16	0.452 ± 0.18
C[C@@H]1O[C@@H](O[C@H]2[C@H](O[C@H]3CC[C@@]4(C)[C@@H](CC[C@]5(C)[C@@H]4CC=C4[C@@H]6CC(C)(C)CC[C@]6(C(=O)O)CC[C@]45C)[C@]3(C)CO)OC[C@H](O)[C@@H]2O)[C@H](O)[C@H](O)[C@H]1O [alpha-Hederin]	0.87 ± 0.018	1.03 ± 0.012
